Data as given in PubChem BioAssay AID1259424 (University of Nebraska Medical Center, 2018).
Aim: 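Find knockdowns that reproduce the expression shifts seen after KSR1 loss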 (primary screen). Cells: human HCT116 colon cancer cells. Reagents: siRNA pool against human genes, 50 nM. Detection: 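Six signature mRNAs by branched-DNA multiplex assay, scaled to two housekeeping genes and non-targeting median, log2; matched to mean KSR1 knockdown profile by Pearson correlation and euclidean distance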. Direction: mean correlation with KSR1 profile and KSR1 correlation: higher = expression change more like KSR1 knockdown; mean distance from KSR1 profile: higher = expression change less like KSR1 knockdown.
The whole screen tested about 14,000 reagents; shown is a part drawn at random. 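Higher correlation or smaller distance means closer resemblance to KSR1 loss; control wells, including KSR1 knockdowns, recur on many plates.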 Not given: the time to read-out.

| gene knocked down | mean correlation with KSR1 profile | mean distance from KSR1 profile | KSR1 correlation, replicate 1 | KSR1 correlation, replicate 2 | KSR1 correlation, replicate 3 |
| --- | --- | --- | --- | --- | --- |
| SYNGR1 | -0.666 | 1.53 | -0.836 | -0.415 | -0.616 |
| SLK | 0.169 | 2.24 | 0.438 | 0.219 | -0.27 |
| ATP5MC3 | 0.446 | 1.81 | 0.477 | 0.335 | 0.411 |
| GTF2A2 | 0.318 | 2.07 | 0.0505 | 0.233 | 0.463 |
| PDGFRL | 0.431 | 1.54 | 0.393 | 0.466 | 0.469 |
| ABHD2 | 0.449 | 1.78 | 0.548 | 0.482 | 0.321 |
| TSC22D3 | -0.338 | 4.7 | -0.251 | -0.406 | -0.34 |
| ZNF264 | -0.142 | 1.74 | -0.416 | 0.00239 | 0.412 |
| ANKRD12 | -0.203 | 1.23 | -0.138 | -0.255 | -0.233 |
| PGGHG | -0.327 | 2.21 | -0.177 | -0.48 | -0.41 |
| CHRNA3 | 0.355 | 1.56 | 0.456 | 0.218 | 0.351 |
| MECR | -0.822 | 2.85 | -0.786 | -0.831 | -0.883 |
| ESD | -0.22 | 5.55 | -0.326 | -0.0671 | -0.267 |
| PRR3 | 0.268 | 1.68 | 0.145 | 0.063 | 0.364 |
| ZNF341 | 0.575 | 2.2 | 0.568 | 0.404 | 0.357 |
| CANT1 | 0.264 | 3.91 | 0.178 | 0.356 | 0.187 |
| SPATA6 | -0.32 | 2.64 | -0.0309 | -0.11 | -0.28 |
| MOV10 | 0.0206 | 2.17 | -0.147 | 0.0673 | 0.0564 |
| H1-1 | -0.372 | 4.98 | -0.33 | -0.485 | -0.424 |
| THNSL1 | 0.108 | 3.17 | 0.183 | 0.12 | -0.0582 |
| MARCHF6 | -0.341 | 1.98 | -0.12 | -0.515 | -0.29 |
| PRDM13 | 0.8 | 1.33 | 0.707 | 0.663 | 0.694 |
| DGCR2 | -0.177 | 2.98 | -0.0266 | -0.26 | -0.293 |
| TSPAN1 | -0.391 | 1.99 | -0.215 | -0.402 | -0.698 |
| KDM5B | -0.106 | 1.82 | 0.0285 | 0.485 | -0.182 |
| DPM1 | -0.524 | 4.04 | -0.432 | -0.515 | -0.578 |
| KCNB2 | -0.846 | 3.52 | -0.831 | -0.817 | -0.77 |
| GIT1 | 0.552 | 2.83 | 0.499 | 0.611 | 0.426 |
| CAPN3 | -0.213 | 2.42 | -0.309 | -0.0976 | -0.328 |
| ARHGEF17 | 0.203 | 2.29 | 0.397 | 0.196 | 0.217 |
| UBAP1 | -0.313 | 3.23 | -0.343 | -0.32 | -0.323 |
| GPR78 | 0.231 | 3.43 | 0.239 | 0.331 | 0.0886 |
| WASF1 | -0.0541 | 1.56 | 0.189 | 0.0398 | -0.0934 |
| TYR | 0.0985 | 3.48 | 0.262 | -0.0463 | 0.0207 |

Targets listed so far whose gene name starts with M or m:
| gene knocked down | mean correlation with KSR1 profile | mean distance from KSR1 profile | KSR1 correlation, replicate 1 | KSR1 correlation, replicate 2 | KSR1 correlation, replicate 3 |
| --- | --- | --- | --- | --- | --- |
| MECR | -0.822 | 2.85 | -0.786 | -0.831 | -0.883 |
| MOV10 | 0.0206 | 2.17 | -0.147 | 0.0673 | 0.0564 |
| MARCHF6 | -0.341 | 1.98 | -0.12 | -0.515 | -0.29 |
